Laboratory results published in PubChem BioAssay AID1347423 (Functional Genomics Laboratory (NCATS/FGL), 2020).
Among all 52,000 sequences or so, about 210 (0.4%) were called active.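 The calls were made as follows: active = gene whose silencing raises cell survival under the drug, median off-target-corrected z-score across its silencing RNAs 2 or more; inactive = the rest.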 This is one part of the list.

Test: Resistance to Poly (ADP-Ribose) Polymerase inhibitor: Gene Identification via Genome-wide siRNA Screen
Conditions: mouse BRCA2 R2336H ES cells, olaparib, CellTiter-Glo viability; stronger effect = higher value
Method in brief: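 Mouse BRCA2 R2336H ES cells were reverse-transfected with siRNA (20 nM final), treated at 48 h with 500 nM olaparib, and read by CellTiter-Glo after 72 h. Scores: MAD-based z per siRNA, median per gene, seed off-target correction.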

| Sequence | z-score |
| --- | --- |
| GCUCUAUAGUGACCAAUGUTT against Gcgr | inactive: 0.0325 |
| GGAUAGUAUACUAGAAGAATT against F730047E07Rik | inactive: -3.11 |
| CGUACCAUGUAAAUUCUAUTT against Impa1 | inactive: 1.02 |
| GUCAGAUCUCAGAAUCAUGTT against Sr278 | inactive: 0.853 |
| GGACUUCUUUGUAAUACUGTT against 9830132L24 | inactive: -0.309 |
| GGCAAAAACAACAACAACATT against Isg20 | inactive: -0.686 |
| GGGCUUUCAAUGAAUUACGTT against Zc3hdc5 | inactive: -0.871 |
| CGAUGUUGGUAUUACUGUUTT against MGC38735 | inactive: 1.42 |
| GGAGCCUUUCUAGCUACCUTT against Egfl9 | inactive: 0.915 |
| GGCAUUGACAUAGGUCAUATT against Blcap | inactive: 0.896 |
| CGUUAGCAGGAUGUUAAACTT against Ropn1 | inactive: -0.641 |
| GCACAACAAGCGAUGUCAUTT against Myo9b | inactive: -1.14 |
| GGUGUCCAGUCAAUAAGAGTT against Msx3 | inactive: -0.501 |
| GCACCUUUGACAGAAGAACTT against Ptf1a | inactive: 0.687 |
| GGGCCAUGCUAGAUUUGCUTT against Scamp1 | inactive: 1.12 |
| GGAAGUUGUAGGAGAAAACTT against D130054N24Rik | inactive: -0.697 |
| CCCUGUUAGUGUCUCUAUUTT against Tas2r113 | inactive: 0.267 |
| CCCUGAUAUAUACACAUACTT against Pofut1 | inactive: -1.45 |
| GGAAAUCGUGCCUAGUCUGTT against Cdk3 | inactive: 1.1 |
| CCCGGUUAGCCUUUGAUUGTT against Lamc3 | inactive: 0.532 |
| GGCUACAAGGUUCGCUAUGTT against Fgfr1 | inactive: 0.56 |
| CCUUCCUAGAGUAAUCAAATT against Olfr1289 | inactive: 0.466 |
| GGAAAAUGGGUCAAAUUUGTT against Nudt5 | inactive: -0.0207 |
| GCAAUCCGGCGAUAAGAAUTT against BC031181 | inactive: -0.811 |
| GGAGAAGAGAAUCAACUGCTT against Pou2f3 | inactive: 0.293 |
| GGGUCCUGCUCAACAUCAUTT against 6330569M22Rik | inactive: -1.78 |
| GGACAAGUCCGAGAAGACATT against Glo1 | inactive: 0.2 |

| Sequence | z-score |
| --- | --- |
| GGUUCUCGGUAAAUCCUGCTT against Ugalt2 | inactive: 0.92 |
| GGCCAAGAAGAGAAAAACATT against Ccne2 | inactive: -0.992 |
| GGCCAGUUGCUCAAAUUAUTT against Olfr460 | inactive: 0.316 |
| CGAUUACUUGGAAAACCAATT against Ifnt1 | inactive: -1.55 |
| CCUAAUCUCUUGUAGGUAUTT against LOC245128 | inactive: 0.00511 |
| GGUUAAAAGAGGUGAUUAGTT against 1700020C11Rik | inactive: -0.375 |
| GGACAGAGGCCACAGAGAATT against Hrc | inactive: -1.23 |
| GGAGAAUGCACAGGUCAUGTT against Ubxd2 | inactive: -1.56 |
| CGAUGACGGGAAAUAAUUUTT against Snx4 | inactive: -1.76 |
| GGAGGAUGAGCAAGACAACTT against Lbh | inactive: -1.33 |
| GCGUGUUCGCUUCUUGCUATT against Trub2 | inactive: -0.132 |
| GGAUUCCCAACACUUGAAUTT against 2510048K03Rik | inactive: 0.896 |
| GGAUGUUAACAUUGAGCAATT against Asb11 | inactive: 1.78 |
| GGCAUGAAUACAUCACAGCTT against V1rh12 | inactive: -0.946 |
| CGGAUUCAUCAGUUUGGUATT against Cdc7 | inactive: 0.728 |
| GCAUAGAUUGAUGGCUAAUTT against Chd8 | inactive: -2.01 |
| GGCAUCUUUUGGGCAGCAGTT against Scrg1 | inactive: 1.9 |
| GGUAAAGAGACACAAGGUGTT against Gjb1 | inactive: 0.424 |
| GGUAUCAUAUGAUAAAGCATT against Npy5r | inactive: -0.14 |
| GGGACAAUACCAAUUUCUCTT against Car15 | inactive: -0.39 |
| GGAUAAUUCAGACAACAAUTT against Fus | active: 3.47 |
| CCAGUUGUCUAGACCUGCATT against Ptbp1 | inactive: -0.866 |
| CGAAUACUGGACCAUGAUUTT against S100a16 | inactive: 1.62 |
| CCUUCAUCCAAGGACGAUGTT against Olfr781 | inactive: -0.172 |
| GGGAAGAUCUUCAGGAAAATT against Cbr3 | inactive: 0.342 |
| GGAGAUAUCACACAAAUCCTT against Gabrg1 | inactive: 0.479 |
| UGCAAAGGGAAUUGUGCUGTT against Rps23 | inactive: -2.72 |

| Sequence | z-score |
| --- | --- |
| GGAAGACUGUUUUGAGUACTT against AA881470 | inactive: 0.466 |
| GGAUCACGCCUUUUGUCAUTT against Lgtn | inactive: 0.529 |
| GGUAGUAGUAAGCCAUAAATT against Exoc8 | inactive: -0.285 |
| GGACACAGAUCUGAUGACCTT against E130310K16Rik | inactive: 0.075 |
| GGAAGUUUCAGUCAAGAAGTT against 2600005C20Rik | inactive: -0.215 |
| GCCGGAUGCAGGUUAUUAUTT against Wdr33 | inactive: 0.245 |
| CCAGGAUUUUCUUACACGGTT against Cyct | inactive: -0.0282 |
| CGGACACAUGAUUGUCUUCTT against Npas1 | inactive: 0.319 |
| GCAACAGUGCUUUAGAUUCTT against Gpr141 | inactive: -0.201 |
| CCAACUGUAGAUGUAUAUATT against Pmp22 | inactive: 0.0495 |
| GGUGUCACCUUGUUACAACTT against Arrdc4 | inactive: -0.176 |
| CGAUAUGAAGCGAAAUAUCTT against Pmpca | inactive: -2.47 |
| GGUCCAAGACAGCAACAUGTT against C330001K17Rik | inactive: 0.762 |
| GGAAGACUUGAAUUCUCUGTT against Tex101 | inactive: -0.247 |
| GCACUUGUGACUAUAAAGUTT against B230218O03 | inactive: 1.61 |
| GGACCGCCGUGUAAUGAUCTT against Myst4 | inactive: -0.577 |
| GCAACCUCUUCAGCUUACATT against Fjx1 | inactive: -0.328 |
| GGAUUCAAAGUACCAAGUGTT against 4930463G05Rik | inactive: -0.677 |
| GGAAAUCAGUGCCAACAACTT against Accn5 | inactive: -0.987 |
| GAUACCAAGCUAAAAGAUCTT against Ear10 | inactive: 0.0287 |
| GGCAAAGCAACAAUAUCUATT against Cct7 | inactive: -1.17 |
| GGACAAUGUGGUGCUGUCCTT against Slc34a3 | inactive: -0.874 |
| GGUGCAUUAUCUUGGUUCGTT against Hmga2 | inactive: -1.03 |
| CCCAAAAUUAUGGAAGCCATT against Abpd | inactive: -0.0901 |
| GGCUUCAUUCUUGUCCUCCTT against Pap | inactive: 0.472 |
| GGAAUCUAUAAAGGAGACCTT against 1110032D12Rik | inactive: -0.271 |
| GGCAUAUCAGACAACAAGATT against Tcte1 | inactive: 0.0932 |

A section of the results above, for reference:

| Sequence | z-score |
| --- | --- |
| CCAACUGUAGAUGUAUAUATT against Pmp22 | inactive: 0.0495 |
| GGUGUCACCUUGUUACAACTT against Arrdc4 | inactive: -0.176 |

Additional results follow:

| Sequence | z-score |
| --- | --- |
| GGAGCUUAGUUACCCACAUTT against Drg2 | inactive: -0.589 |
| GGUUUCUGUCCAGAUAAAATT against 0610042I15Rik | inactive: 0.185 |
| GGGAAGGAUCACGAGGUUGTT against 1810033A06Rik | inactive: -2.51 |
| GGUAUUUGUGCCAAUUGCCTT against Ccr6 | inactive: 0.0101 |
| GGAUCAGUAAAGCAAAAAUTT against Lsamp | inactive: 2.52 |
| GGCGAAUGAAGGUUUCUGGTT against Pex11b | inactive: 0.846 |
| CGUGAAGGACAUGUCUAAATT against 5730470L24Rik | inactive: 0.471 |
| GGGAGAGACUAACUUGUUUTT against Hpvc2 | inactive: 0.845 |
| CCGAAUUCCAACCUAGAGCTT against 2610311I19Rik | inactive: -1.1 |
| GGUUUGAGAAAUUGGACAUTT against Pou6f1 | inactive: -0.732 |
| GGCUUUGAUCAGCAUGAGCTT against Pak4 | inactive: -1.03 |
| GGAGCAGCGGGUUUAUUGUTT against Mfn2 | inactive: 0.19 |
| GGUGAUCUGGACCAAGAUGTT against Lcp1 | inactive: 1.25 |
| GGUCAUUGGUUCCUCCCUUTT against 4932409I22Rik | inactive: -0.336 |
| CGGAGUGUACCAUCUACACTT against Agpat4 | inactive: -1.45 |
| CCCUGACAGAUUAAUUUCATT against Zbed3 | inactive: -1.61 |
| GGCAUAGUUGCUGUUCUCUTT against Slc9a9 | inactive: 0.354 |
| GCAUUUAAAAUACACGGUGTT against Arg1 | inactive: -1.47 |
| GGCUCAAGUAUGAGAAUGATT against Krt1-15 | inactive: -1.4 |
| GGCAGCUAAGAAUGGAGCATT against Mir16 | inactive: 0.366 |
| CCAAGAAGAGUUAUGUAAUTT against Depdc1a | inactive: -0.716 |
| GGAGUUGGGUAUCAUUAAGTT against Gphb5 | inactive: 0.127 |
| GGAACCACUACAAAAGUUGTT against Si | inactive: 0.242 |
| GUAUUUUACAUAAACAGGGTT against V1rc28 | inactive: 0.102 |

2 entries drawn at random from those above:

| Sequence | z-score |
| --- | --- |
| GGCAUGAAUACAUCACAGCTT against V1rh12 | inactive: -0.946 |
| GGGAAGAUCUUCAGGAAAATT against Cbr3 | inactive: 0.342 |
